Values of other authors, collected in US20180228853A1 (priority 2015, published 2018).
Some of these results come from one statement about several compounds together.

Test system: flu symptoms
Conditions: literature reports; cited from earlier work

| Compound | reduction of the duration of flu symptoms |
| --- | --- |
| CCOC(=O)C1=C[C@@H](OC(CC)CC)[C@H](NC(C)=O)[C@@H](N)C1 [Oseltamivir, oseltamivir] | 2 to 2.5 days |
| CC(=O)N[C@H]1[C@H]([C@H](O)[C@H](O)CO)OC(C(=O)O)=C[C@@H]1N=C(N)N [zanamivir] | 2 to 2.5 days |
